From the supplement of paper PMC10849652
The other results are listed elsewhere or left out.

Chains of the proteins cited; added tags and fusions are not shown. Lines headed by an entry give the natural chain unless they say otherwise; changes in a name come on top.
UniProt Q17RN3: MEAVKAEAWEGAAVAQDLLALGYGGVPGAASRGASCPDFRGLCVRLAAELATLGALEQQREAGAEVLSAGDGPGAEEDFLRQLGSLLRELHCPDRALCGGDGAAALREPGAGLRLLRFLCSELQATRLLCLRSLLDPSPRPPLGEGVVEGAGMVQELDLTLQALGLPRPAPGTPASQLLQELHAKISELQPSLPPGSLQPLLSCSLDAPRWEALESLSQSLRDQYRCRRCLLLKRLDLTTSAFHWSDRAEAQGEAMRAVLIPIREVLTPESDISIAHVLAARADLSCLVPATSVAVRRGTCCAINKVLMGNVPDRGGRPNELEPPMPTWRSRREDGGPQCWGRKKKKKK
UniProt Q6ZV73: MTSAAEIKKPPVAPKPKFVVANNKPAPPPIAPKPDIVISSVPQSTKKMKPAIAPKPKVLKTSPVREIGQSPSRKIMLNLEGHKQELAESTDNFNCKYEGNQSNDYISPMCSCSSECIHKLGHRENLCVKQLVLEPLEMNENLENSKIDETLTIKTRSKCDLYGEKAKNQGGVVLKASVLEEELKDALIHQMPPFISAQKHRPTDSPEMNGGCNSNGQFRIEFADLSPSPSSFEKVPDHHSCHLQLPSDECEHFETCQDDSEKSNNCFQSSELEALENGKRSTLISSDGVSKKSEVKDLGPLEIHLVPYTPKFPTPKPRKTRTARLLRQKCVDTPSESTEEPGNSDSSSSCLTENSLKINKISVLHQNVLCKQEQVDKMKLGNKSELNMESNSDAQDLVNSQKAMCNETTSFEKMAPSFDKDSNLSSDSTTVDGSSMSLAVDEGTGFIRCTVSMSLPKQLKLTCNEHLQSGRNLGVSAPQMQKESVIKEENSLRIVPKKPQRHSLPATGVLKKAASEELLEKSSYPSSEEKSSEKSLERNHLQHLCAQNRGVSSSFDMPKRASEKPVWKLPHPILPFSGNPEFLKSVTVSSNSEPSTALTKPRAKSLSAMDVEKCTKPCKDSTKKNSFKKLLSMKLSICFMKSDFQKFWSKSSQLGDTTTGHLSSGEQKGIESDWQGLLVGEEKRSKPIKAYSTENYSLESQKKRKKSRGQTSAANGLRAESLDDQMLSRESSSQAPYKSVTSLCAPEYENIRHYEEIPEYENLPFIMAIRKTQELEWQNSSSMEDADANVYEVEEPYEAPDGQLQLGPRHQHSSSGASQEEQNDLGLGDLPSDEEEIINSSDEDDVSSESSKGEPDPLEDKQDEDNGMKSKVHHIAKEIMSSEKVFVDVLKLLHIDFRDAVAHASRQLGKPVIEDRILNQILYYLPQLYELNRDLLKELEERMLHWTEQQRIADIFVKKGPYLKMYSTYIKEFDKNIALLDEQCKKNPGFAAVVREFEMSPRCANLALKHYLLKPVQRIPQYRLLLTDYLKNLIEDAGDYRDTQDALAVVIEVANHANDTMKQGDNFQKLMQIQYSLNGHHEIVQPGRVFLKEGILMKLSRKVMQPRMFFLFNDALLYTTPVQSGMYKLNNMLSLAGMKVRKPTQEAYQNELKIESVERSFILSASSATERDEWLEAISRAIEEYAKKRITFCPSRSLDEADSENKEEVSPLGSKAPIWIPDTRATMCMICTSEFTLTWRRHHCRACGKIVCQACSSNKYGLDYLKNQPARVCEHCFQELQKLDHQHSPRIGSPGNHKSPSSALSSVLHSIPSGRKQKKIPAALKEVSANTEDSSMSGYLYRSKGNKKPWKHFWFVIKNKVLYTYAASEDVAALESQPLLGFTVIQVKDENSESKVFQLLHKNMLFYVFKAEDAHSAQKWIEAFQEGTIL
UniProt Q9NVK5: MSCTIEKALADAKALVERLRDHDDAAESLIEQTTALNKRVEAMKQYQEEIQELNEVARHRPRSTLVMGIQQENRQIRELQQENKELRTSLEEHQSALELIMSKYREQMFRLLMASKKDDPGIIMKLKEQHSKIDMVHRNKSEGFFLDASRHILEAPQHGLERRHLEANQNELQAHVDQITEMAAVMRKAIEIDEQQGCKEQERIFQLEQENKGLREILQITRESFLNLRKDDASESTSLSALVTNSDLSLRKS
UniProt P22087: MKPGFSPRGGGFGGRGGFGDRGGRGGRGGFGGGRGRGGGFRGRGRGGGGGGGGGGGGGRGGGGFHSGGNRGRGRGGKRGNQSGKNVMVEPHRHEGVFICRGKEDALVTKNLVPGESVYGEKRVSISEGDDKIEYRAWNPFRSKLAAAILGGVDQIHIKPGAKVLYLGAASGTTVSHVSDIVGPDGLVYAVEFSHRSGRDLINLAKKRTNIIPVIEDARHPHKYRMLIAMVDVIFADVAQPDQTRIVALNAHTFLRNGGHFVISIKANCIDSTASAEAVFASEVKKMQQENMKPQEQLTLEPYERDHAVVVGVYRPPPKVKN
UniProt Q5XUX1: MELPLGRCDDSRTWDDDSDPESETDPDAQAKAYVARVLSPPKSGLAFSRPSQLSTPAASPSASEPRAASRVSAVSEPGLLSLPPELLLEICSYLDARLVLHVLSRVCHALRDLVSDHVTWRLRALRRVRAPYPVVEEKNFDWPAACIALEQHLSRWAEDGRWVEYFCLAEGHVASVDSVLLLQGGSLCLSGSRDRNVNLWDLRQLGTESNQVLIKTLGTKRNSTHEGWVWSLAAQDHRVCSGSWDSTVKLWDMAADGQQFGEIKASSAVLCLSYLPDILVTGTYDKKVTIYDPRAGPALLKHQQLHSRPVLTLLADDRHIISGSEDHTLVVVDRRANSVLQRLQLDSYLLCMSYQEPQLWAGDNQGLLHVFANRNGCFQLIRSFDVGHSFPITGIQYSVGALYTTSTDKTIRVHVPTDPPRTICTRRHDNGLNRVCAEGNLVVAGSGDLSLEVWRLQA
UniProt Q96RU3: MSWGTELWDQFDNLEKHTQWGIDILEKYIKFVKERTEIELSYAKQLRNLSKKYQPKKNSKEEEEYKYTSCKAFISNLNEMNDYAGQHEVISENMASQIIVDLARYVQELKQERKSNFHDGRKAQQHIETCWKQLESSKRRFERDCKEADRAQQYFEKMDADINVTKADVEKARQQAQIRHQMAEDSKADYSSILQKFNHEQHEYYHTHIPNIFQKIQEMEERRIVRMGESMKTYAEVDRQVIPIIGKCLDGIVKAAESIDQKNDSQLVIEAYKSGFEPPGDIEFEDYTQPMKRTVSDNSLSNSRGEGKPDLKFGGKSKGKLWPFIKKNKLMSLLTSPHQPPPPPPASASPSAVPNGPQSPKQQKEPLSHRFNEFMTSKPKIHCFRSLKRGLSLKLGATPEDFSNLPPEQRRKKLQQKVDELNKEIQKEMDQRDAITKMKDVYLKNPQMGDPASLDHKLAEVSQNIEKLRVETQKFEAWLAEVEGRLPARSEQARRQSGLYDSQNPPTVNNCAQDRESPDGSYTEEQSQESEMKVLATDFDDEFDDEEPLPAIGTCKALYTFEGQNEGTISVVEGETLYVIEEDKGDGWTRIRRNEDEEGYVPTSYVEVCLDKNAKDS
UniProt Q96HJ9: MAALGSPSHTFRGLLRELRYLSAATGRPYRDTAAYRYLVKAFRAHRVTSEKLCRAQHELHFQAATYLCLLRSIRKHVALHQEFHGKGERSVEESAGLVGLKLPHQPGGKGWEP
UniProt Q9UK73, whole entry, looked up: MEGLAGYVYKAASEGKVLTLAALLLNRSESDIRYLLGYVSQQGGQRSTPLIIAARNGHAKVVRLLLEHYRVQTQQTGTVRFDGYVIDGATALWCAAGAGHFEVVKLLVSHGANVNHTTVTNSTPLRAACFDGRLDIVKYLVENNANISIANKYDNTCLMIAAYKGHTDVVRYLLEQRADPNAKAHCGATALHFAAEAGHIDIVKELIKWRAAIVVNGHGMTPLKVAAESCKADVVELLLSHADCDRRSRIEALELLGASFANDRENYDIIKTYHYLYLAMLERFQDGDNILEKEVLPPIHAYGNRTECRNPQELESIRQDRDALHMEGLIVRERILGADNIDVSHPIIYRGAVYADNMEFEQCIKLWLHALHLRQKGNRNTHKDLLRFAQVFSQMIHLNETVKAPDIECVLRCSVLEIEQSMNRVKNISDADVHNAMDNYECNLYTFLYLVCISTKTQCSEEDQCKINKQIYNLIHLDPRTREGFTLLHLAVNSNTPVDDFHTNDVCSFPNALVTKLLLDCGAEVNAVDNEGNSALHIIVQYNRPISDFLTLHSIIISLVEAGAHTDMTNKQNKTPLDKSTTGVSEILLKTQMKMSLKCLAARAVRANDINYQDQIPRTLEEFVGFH
UniProt Q14318: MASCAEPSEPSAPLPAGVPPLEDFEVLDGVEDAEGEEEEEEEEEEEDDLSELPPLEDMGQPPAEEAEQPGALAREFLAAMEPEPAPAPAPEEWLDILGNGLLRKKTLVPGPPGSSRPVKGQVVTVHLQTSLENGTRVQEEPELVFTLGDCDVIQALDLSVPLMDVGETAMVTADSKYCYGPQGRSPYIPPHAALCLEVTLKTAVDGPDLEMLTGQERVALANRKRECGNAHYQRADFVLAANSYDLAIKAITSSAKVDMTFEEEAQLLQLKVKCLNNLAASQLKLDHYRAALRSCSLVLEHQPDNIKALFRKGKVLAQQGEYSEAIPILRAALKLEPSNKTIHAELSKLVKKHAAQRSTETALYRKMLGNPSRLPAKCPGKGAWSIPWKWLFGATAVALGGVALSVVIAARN
UniProt Q5T1M5: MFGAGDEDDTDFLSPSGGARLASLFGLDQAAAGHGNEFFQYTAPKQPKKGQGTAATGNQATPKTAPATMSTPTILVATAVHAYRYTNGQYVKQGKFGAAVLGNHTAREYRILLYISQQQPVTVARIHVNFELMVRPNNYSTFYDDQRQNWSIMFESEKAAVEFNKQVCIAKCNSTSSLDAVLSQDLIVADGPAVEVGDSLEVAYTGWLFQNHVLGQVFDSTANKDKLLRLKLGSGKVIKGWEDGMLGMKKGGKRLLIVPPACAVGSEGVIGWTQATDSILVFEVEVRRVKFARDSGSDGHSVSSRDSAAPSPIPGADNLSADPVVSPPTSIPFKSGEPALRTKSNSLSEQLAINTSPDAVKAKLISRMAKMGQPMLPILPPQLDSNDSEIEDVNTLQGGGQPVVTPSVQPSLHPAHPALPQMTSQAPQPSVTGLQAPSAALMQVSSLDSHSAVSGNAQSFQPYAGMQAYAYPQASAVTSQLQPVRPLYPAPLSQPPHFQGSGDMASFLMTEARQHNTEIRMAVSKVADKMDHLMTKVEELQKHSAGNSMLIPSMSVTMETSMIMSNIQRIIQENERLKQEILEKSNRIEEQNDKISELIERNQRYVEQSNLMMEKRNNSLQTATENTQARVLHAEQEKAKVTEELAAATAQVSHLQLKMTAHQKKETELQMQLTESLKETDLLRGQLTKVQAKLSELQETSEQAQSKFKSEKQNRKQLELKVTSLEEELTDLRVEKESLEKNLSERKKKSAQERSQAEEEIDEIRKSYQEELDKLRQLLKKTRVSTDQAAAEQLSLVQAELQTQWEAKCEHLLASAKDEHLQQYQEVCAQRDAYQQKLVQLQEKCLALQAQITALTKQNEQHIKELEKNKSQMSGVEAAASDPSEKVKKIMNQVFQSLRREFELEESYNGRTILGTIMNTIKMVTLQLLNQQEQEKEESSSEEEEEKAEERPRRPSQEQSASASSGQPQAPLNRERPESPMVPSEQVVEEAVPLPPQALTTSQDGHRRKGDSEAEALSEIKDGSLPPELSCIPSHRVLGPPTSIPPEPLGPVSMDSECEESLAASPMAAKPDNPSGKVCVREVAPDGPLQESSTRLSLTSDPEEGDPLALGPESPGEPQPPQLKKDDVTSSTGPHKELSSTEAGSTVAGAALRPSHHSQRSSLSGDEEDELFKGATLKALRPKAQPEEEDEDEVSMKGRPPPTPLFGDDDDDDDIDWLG
UniProt P39748, whole entry, looked up: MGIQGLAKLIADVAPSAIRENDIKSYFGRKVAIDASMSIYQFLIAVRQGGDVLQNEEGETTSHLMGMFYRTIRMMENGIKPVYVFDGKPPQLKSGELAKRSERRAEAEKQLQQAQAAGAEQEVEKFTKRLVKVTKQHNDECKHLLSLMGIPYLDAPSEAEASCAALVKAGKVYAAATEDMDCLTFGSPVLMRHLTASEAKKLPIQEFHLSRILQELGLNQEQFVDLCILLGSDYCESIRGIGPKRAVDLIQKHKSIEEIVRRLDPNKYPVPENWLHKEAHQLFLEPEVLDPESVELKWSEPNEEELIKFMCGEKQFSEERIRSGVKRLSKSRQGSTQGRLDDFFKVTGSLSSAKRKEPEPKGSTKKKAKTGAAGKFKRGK
UniProt Q9UBU6: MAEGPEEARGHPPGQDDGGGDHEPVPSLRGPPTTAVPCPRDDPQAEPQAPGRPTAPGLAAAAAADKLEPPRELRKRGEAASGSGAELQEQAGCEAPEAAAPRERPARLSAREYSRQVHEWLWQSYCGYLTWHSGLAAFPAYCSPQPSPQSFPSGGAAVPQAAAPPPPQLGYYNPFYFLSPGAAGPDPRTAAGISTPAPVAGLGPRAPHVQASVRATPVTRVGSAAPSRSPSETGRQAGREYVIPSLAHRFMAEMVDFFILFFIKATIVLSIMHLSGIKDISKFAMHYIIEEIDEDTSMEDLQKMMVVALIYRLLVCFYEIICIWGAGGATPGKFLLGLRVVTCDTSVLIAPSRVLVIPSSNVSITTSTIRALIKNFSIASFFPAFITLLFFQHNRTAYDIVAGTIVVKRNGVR

Columns and labels:
Test in all cases: log2 fold change, soluble protein after heating vs DMSO (PISA); higher = thermal stabilisation; K562 lysate, 10 uM; active = over 0.2 and 3.5 SD of the protein, either way, in both replicates (recomputed)
vemurafenib = compound: CCCS(=O)(=O)Nc1ccc(F)c(C(=O)c2c[nH]c3ncc(-c4ccc(Cl)cc4)cc23)c1F [vemurafenib]
Method in brief: (§1)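 The values are log-two fold changes in thermal stability compared with solvent controls and come from duplicates. They were obtained by TMTpro 16plex LC-MS/MS, with channel sums equalised, on the supernatant after 21,000xg for 90 min. That supernatant came from crude K562 extract at 1 mg/mL protein treated with 10 μM compound for 30 min, heated for 3 min across 48°C-58°C, pooled and brought to 0.5% NP-40 at 4°C.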

[1] = compound: CCCS(=O)(=O)Nc1ccc(F)c(C(=O)c2c[nH]c3ncc(Cl)cc23)c1F
Method in brief: as §1

barasertib = compound: CCN(CCCOc1ccc2c(Nc3cc(CC(=O)Nc4cccc(F)c4)[nH]n3)ncnc2c1)CCOP(=O)(O)O [barasertib]
Method in brief: as §1

[2] = compound: CC[C@@H]1C(=O)N(C)c2cnc(Nc3ccc(C(=O)NC4CCN(C)CC4)cc3OC)nc2N1C1CCCC1
Method in brief: as §1

volasertib = compound: CC[C@@H]1C(=O)N(C)c2cnc(Nc3ccc(C(=O)N[C@H]4CC[C@H](N5CCN(CC6CC6)CC5)CC4)cc3OC)nc2N1C(C)C [volasertib]
Method in brief: as §1

[3] = compound: CCn1c(C(=O)N(C2CC2)C2CC2)cc2c3c(ncn3C)c(Nc3cc(C)n(C)n3)nc21
Method in brief: as §1

[4] = compound: CCn1cc(-c2ccnc3[nH]c(-c4cccc(CN(C)C)c4)cc23)c(-c2ccc(NC(=O)N(C)C)cc2)n1
Method in brief: as §1

[5] = compound: CN1CCC(CNc2ccc3ncc(-c4cccc(OC(F)(F)F)c4)n3n2)CC1
Method in brief: as §1

saracatinib = compound: CN1CCN(CCOc2cc(OC3CCOCC3)c3c(Nc4c(Cl)ccc5c4OCO5)ncnc3c2)CC1 [saracatinib]
Method in brief: as §1

sotrastaurin = compound: CN1CCN(c2nc(C3=C(c4c[nH]c5ccccc45)C(=O)NC3=O)c3ccccc3n2)CC1 [sotrastaurin]
Method in brief: as §1

alvocidib = compound: CN1CC[C@H](c2c(O)cc(O)c3c(=O)cc(-c4ccccc4Cl)oc23)[C@H](O)C1 [alvocidib]
Method in brief: as §1

Tubastatin A = compound: CN1CCc2c(c3ccccc3n2Cc2ccc(C(=O)NO)cc2)C1 [Tubastatin A]
Method in brief: as §1

[6] = compound: CNC(=O)C1=CC=CC=C1NC2=NC(=NC=C2Cl)NC3=C(C=C(C=C3)N4CCOCC4)OC
Method in brief: as §1

defactinib = compound: CNC(=O)c1ccc(Nc2ncc(C(F)(F)F)c(NCc3nccnc3N(C)S(C)(=O)=O)n2)cc1 [defactinib]
Method in brief: as §1

[7] = compound: CNc1nc(-c2ccc3c(N)n[nH]c3c2)cc(N2C[C@@H](C(=O)NC3CCCCC3)CC[C@H]2C)n1
Method in brief: as §1

encorafenib = compound: COC(=O)N[C@@H](C)CNc1nccc(-c2cn(C(C)C)nc2-c2cc(Cl)cc(NS(C)(=O)=O)c2F)n1 [encorafenib]
Method in brief: as §1

[8] = compound: COC(=O)[C@H](CCSC)NC(=O)C1=C(C=C(C=C1)NC[C@H](CS)N)C2=CC=CC=C2
Method in brief: as §1

alisertib = compound: COc1cc(Nc2ncc3c(n2)-c2ccc(Cl)cc2C(c2c(F)cccc2OC)=NC3)ccc1C(=O)O [alisertib]
Method in brief: as §1

[9] = compound: COc1cc2nc(-c3cc(F)ccc3O)nc(N[C@@H]3CNC[C@H]3C(C)(C)O)c2cc1OC
Method in brief: as §1

gefitinib = compound: COc1cc2ncnc(Nc3ccc(F)c(Cl)c3)c2cc1OCCCN1CCOCC1 [gefitinib]
Method in brief: as §1

Measured: log2 fold change

FNTA (UniProt P49354)
inactive: vemurafenib -0.028 | [1] -0.009 | barasertib 0.014 | [2] 0.046 | volasertib 0.012 | [3] -0.01 | [4] 0.071 | [5] -0.057 | saracatinib 0.002 | sotrastaurin -0.064 | alvocidib 0 | Tubastatin A 0.05 | [6] -0.06 | defactinib -0.01 | [7] -0.025 | encorafenib 0 | [8] 0.136 | alisertib -0.006 | [9] -0.002 | gefitinib 0.002

FAM98C (UniProt Q17RN3)
inactive: vemurafenib 0 | [1] -0.108 | barasertib 0.043 | [2] -0.241 | volasertib -0.187 | [3] -0.162 | [4] 0.112 | [5] 0.018 | saracatinib 0.112 | sotrastaurin 0.115 | alvocidib -0.137 | Tubastatin A -0.031 | [6] 0.259 | defactinib -0.059 | [7] 0.087 | encorafenib -0.022 | [8] 0.107 | alisertib -0.004 | [9] -0.183 | gefitinib 0.085

FIG4 (UniProt Q92562)
inactive: vemurafenib 0.107 | [1] 0.071 | barasertib -0.085 | [2] -0.201 | volasertib -0.012 | [3] -0.045 | [4] 0.104 | [5] -0.012 | saracatinib 0.032 | sotrastaurin 0.092 | alvocidib -0.106 | Tubastatin A 0.012 | [6] -0.004 | defactinib -0.039 | [7] -0.016 | encorafenib 0.064 | [8] 0.037 | alisertib -0.145 | [9] 0.079 | gefitinib 0.148

FGD6 (UniProt Q6ZV73)
inactive: vemurafenib 0.691 | [1] -0.551 | barasertib -0.401 | [2] 0.356 | volasertib -0.084 | [3] 0.003 | [4] -0.227 | [5] -0.214 | saracatinib 0.05 | sotrastaurin 0.071 | alvocidib 0.168 | Tubastatin A 0.151 | [6] -0.004 | defactinib -0.102 | [7] 0.063 | encorafenib 0.499 | [8] 0.206 | alisertib -0.672 | [9] -0.095 | gefitinib 1.14

FGFR1OP2 (UniProt Q9NVK5)
inactive: vemurafenib 0.038 | [1] -0.046 | barasertib 0 | [2] -0.078 | volasertib 0.069 | [3] -0.017 | [4] 0.002 | [5] 0 | saracatinib -0.004 | sotrastaurin 0.103 | alvocidib -0.03 | Tubastatin A 0.018 | [6] 0.029 | defactinib 0.029 | [7] -0.084 | encorafenib 0.041 | [8] -0.038 | alisertib 0.052 | [9] 0.023 | gefitinib -0.022

FAM98B (UniProt Q52LJ0)
inactive: vemurafenib 0.013 | [1] -0.005 | barasertib 0.028 | [2] -0.006 | volasertib -0.047 | [3] 0.001 | [4] -0.031 | [5] 0.014 | saracatinib -0.025 | sotrastaurin 0.028 | alvocidib 0.012 | Tubastatin A -0.001 | [6] -0.015 | defactinib 0.038 | [7] -0.033 | encorafenib -0.03 | [8] -0.002 | alisertib -0.008 | [9] -0.007 | gefitinib -0.007

FCHSD1 (UniProt Q86WN1)
inactive: vemurafenib 0.068 | [1] -0.001 | barasertib 0.099 | [2] -0.107 | volasertib 0.035 | [3] -0.077 | [4] -0.073 | [5] 0.08 | saracatinib -0.043 | sotrastaurin -0.047 | alvocidib -0.097 | Tubastatin A -0.083 | [6] -0.044 | defactinib -0.029 | [7] -0.038 | encorafenib 0.009 | [8] 0.004 | alisertib -0.054 | [9] -0.041 | gefitinib -0.05

FBL (UniProt P22087)
inactive: vemurafenib 0.004 | [1] 0.004 | barasertib 0.009 | [2] 0.035 | volasertib -0.044 | [3] -0.015 | [4] 0.009 | [5] -0.042 | saracatinib 0.025 | sotrastaurin -0.007 | alvocidib -0.017 | Tubastatin A 0.002 | [6] -0.022 | defactinib -0.075 | [7] 0.022 | encorafenib 0.045 | [8] 0.055 | alisertib 0.02 | [9] 0.007 | gefitinib -0.008

Reprinted from the results shown (2 entries):
FCHSD1 (UniProt Q86WN1)
inactive: vemurafenib 0.068 | [1] -0.001 | barasertib 0.099 | [2] -0.107 | volasertib 0.035 | [3] -0.077 | [4] -0.073 | [5] 0.08 | saracatinib -0.043 | sotrastaurin -0.047 | alvocidib -0.097 | Tubastatin A -0.083 | [6] -0.044 | defactinib -0.029 | [7] -0.038 | encorafenib 0.009 | [8] 0.004 | alisertib -0.054 | [9] -0.041 | gefitinib -0.05

FBL (UniProt P22087)
inactive: vemurafenib 0.004 | [1] 0.004 | barasertib 0.009 | [2] 0.035 | volasertib -0.044 | [3] -0.015 | [4] 0.009 | [5] -0.042 | saracatinib 0.025 | sotrastaurin -0.007 | alvocidib -0.017 | Tubastatin A 0.002 | [6] -0.022 | defactinib -0.075 | [7] 0.022 | encorafenib 0.045 | [8] 0.055 | alisertib 0.02 | [9] 0.007 | gefitinib -0.008

Further entries follow.

FBXW9 (UniProt Q5XUX1)
inactive: vemurafenib 0.084 | [1] 0.052 | barasertib 0.025 | [2] -0.025 | volasertib -0.019 | [3] -0.029 | [4] -0.006 | [5] -0.013 | saracatinib 0.057 | sotrastaurin 0.069 | alvocidib -0.002 | Tubastatin A 0.005 | [6] 0.001 | defactinib 0.017 | [7] 0.039 | encorafenib 0.012 | [8] -0.216 | alisertib 0.015 | [9] -0.015 | gefitinib 0.002

FNBP1 (UniProt Q96RU3)
inactive: vemurafenib -0.065 | [1] -0.019 | barasertib -0.02 | [2] -0.047 | volasertib -0.043 | [3] 0.046 | [4] 0.042 | [5] 0.121 | saracatinib -0.049 | sotrastaurin 0.038 | alvocidib -0.131 | Tubastatin A -0.041 | [6] -0.073 | defactinib 0.015 | [7] -0.091 | encorafenib 0.052 | [8] 0.058 | alisertib -0.043 | [9] 0.004 | gefitinib -0.066

FMC1 (UniProt Q96HJ9)
inactive: vemurafenib 0.059 | [1] 0.04 | barasertib 0.13 | [2] -0.07 | volasertib -0.008 | [3] -0.041 | [4] 0.021 | [5] 0.029 | saracatinib -0.046 | sotrastaurin -0.026 | alvocidib 0.036 | Tubastatin A -0.034 | [6] -0.018 | defactinib -0.11 | [7] -0.005 | encorafenib 0.163 | [8] -0.071 | [9] -0.063

FEM1B (UniProt Q9UK73)
inactive: vemurafenib 0.051 | [1] 0.057 | barasertib 0.054 | [2] 0.1 | volasertib -0.191 | [3] -0.016 | [4] -0.203 | [5] 0.056 | saracatinib 0.038 | sotrastaurin 0.029 | alvocidib -0.089 | Tubastatin A 0.023 | [6] 0.058 | defactinib 0.028 | [7] 0.02 | encorafenib 0.044 | [8] -0.008 | alisertib 0.015 | [9] 0.321 | gefitinib 0.02

FKBP8 isoform 2 (UniProt Q14318)
inactive: vemurafenib -0.037 | [1] -0.01 | barasertib 0.366 | [2] -0.045 | volasertib 0.005 | [3] -0.029 | [4] 0.033 | [5] -0.084 | saracatinib -0.022 | sotrastaurin 0.006 | alvocidib 0.004 | Tubastatin A -0.123 | [6] 0.02 | defactinib 0.024 | [7] -0.018 | encorafenib 0.009 | [8] 0.112 | alisertib 0.027 | [9] 0.001 | gefitinib 0.01

FKBP15 (UniProt Q5T1M5)
inactive: vemurafenib 0.014 | [1] 0.009 | barasertib 0.02 | [2] 0.021 | volasertib -0.011 | [3] -0.003 | [4] -0.015 | [5] 0.016 | saracatinib 0.003 | sotrastaurin -0.01 | alvocidib -0.014 | Tubastatin A 0 | [6] -0.021 | defactinib -0.011 | [7] 0.054 | encorafenib 0.017 | [8] -0.007 | alisertib 0.003 | [9] 0.059 | gefitinib 0.025

FEN1 (UniProt P39748)
inactive: vemurafenib 0.035 | [1] 0.033 | barasertib -0.029 | [2] -0.034 | volasertib -0.021 | [3] -0.02 | [4] -0.024 | [5] -0.036 | saracatinib 0.048 | sotrastaurin 0.02 | alvocidib 0.023 | Tubastatin A -0.026 | [6] 0.004 | defactinib 0.044 | [7] 0.049 | encorafenib 0.025 | [8] 0.038 | alisertib 0.006 | [9] -0.012 | gefitinib -0.057

FAM8A1 (UniProt Q9UBU6)
inactive: vemurafenib -0.042 | [1] 0.071 | barasertib 0.032 | [2] 0.064 | volasertib -0.058 | [3] -0.024 | [4] -0.182 | [5] 0.154 | saracatinib 0.037 | sotrastaurin -0.029 | alvocidib -0.001 | Tubastatin A 0.088 | [6] 0 | defactinib 0.043 | [7] 0.019 | encorafenib -0.065 | [8] 0.021 | alisertib -0.087 | [9] -0.032 | gefitinib -0.008
